Test results as given in article doi:10.1101/2021.05.25.445488.
No constants are given. Whether binding was seen depends on the method and setting. Binding seen in cells or lysates may run through a third protein. A result given as binding can be weak or reduced; the word gives no strength.

The chains behind the UniProt entries cited, without tags or fusion partners.
UniProt O75386: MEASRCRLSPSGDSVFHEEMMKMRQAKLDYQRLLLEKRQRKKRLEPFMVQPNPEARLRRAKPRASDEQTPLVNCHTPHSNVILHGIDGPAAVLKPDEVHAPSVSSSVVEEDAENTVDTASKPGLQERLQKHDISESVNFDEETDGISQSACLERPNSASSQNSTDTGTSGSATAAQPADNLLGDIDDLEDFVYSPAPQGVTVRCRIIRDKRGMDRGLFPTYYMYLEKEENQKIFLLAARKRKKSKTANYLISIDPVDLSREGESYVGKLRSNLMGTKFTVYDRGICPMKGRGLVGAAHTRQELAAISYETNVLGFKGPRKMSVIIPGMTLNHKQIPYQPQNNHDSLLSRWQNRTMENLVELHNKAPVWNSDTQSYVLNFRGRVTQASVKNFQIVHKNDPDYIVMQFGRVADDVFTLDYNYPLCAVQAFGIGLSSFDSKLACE

Biological target: GST-TULP3 full length (human) (UniProt O75386)
Assay: pull-down

Row | Substance | binding
1 | Myc-ARL13B Δ1,2 (double deletion mutant in the full-length protein) (from UniProt Q3SXY8-1) | binds weakly
2 | Myc-ARL13B Δ2 (deletion of seven conserved aa following the palmitoylation site) (from UniProt Q3SXY8-1) | binds
3 | Myc-ARL13B Δ1 (deletion of 4 conserved aa preceding the palmitoylation site) (from UniProt Q3SXY8-1) | binds
4 | Myc-ARL13B Δ19 (helix deleted) (from UniProt Q3SXY8-1) (domain or fragment) | binds weakly
